Melanoma cell counts after drug treatment

From a melanoma drug combination screen (doi:10.1371/journal.pone.0140310); values rounded.

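Human melanoma cells were exposed to two drugs together for 72 h in 1,536-well plates and read by automated microscopy after fixing and staining. Each value is the count of nuclei relative to DMSO-treated wells, in %, so that 100 equals the control. Concentrations were fixed for each drug; these are the lower of two levels, a fifth of the higher. No replicate spread is given; individual values may be noisy.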 An unselected part of the screen is shown. An entry leaves out what has no value listed here. A dash means that no value is listed here.

Drug key:
A-769662, 2000 nM: N#Cc1c(O)c2c(-c3ccc(-c4ccccc4O)cc3)csc2[nH]c1=O
fludarabine, 200 nM: Nc1nc(F)nc2c1ncn2[C@@H]1O[C@H](CO)[C@@H](O)[C@@H]1O
OSI-906, 400 nM: C[C@]1(O)C[C@@H](c2nc(-c3ccc4ccc(-c5ccccc5)nc4c3)c3c(N)nccn32)C1
everolimus, 20 nM: CO[C@H]1C[C@@H]2CC[C@@H](C)[C@@](O)(O2)C(=O)C(=O)N2CCCC[C@H]2C(=O)O[C@H]([C@H](C)C[C@@H]2CC[C@@H](OCCO)[C@H](OC)C2)CC(=O)[C@H](C)/C=C(\C)[C@@H](O)[C@@H](OC)C(=O)[C@H](C)C[C@H](C)/C=C/C=C/C=C/1C
pioglitazone, 2000 nM: CCc1ccc(CCOc2ccc(CC3SC(=O)NC3=O)cc2)nc1 (stereo not given)
NVP-BEZ235, 4 nM: Cn1c(=O)n(-c2ccc(C(C)(C)C#N)cc2)c2c3cc(-c4cnc5ccccc5c4)ccc3ncc21
CHIR-265, 80 nM: Cn1c(Nc2ccc(C(F)(F)F)cc2)nc2cc(Oc3ccnc(-c4ncc(C(F)(F)F)[nH]4)c3)ccc21
cediranib, 400 nM: COc1cc2c(Oc3ccc4[nH]c(C)cc4c3F)ncnc2cc1OCCCN1CCCC1
ENMD-2076, 40 nM: Cc1cc(Nc2cc(N3CCN(C)CC3)nc(/C=C/c3ccccc3)n2)n[nH]1

With NVP-BEZ235 and cediranib the screen read C32: 88.1; G-361: 110; COLO 792: 84.5. For A-769662 and fludarabine the values were C32: 95.9; G-361: 88.6; COLO 792: 81.1; 501mel: 7.3. With CHIR-265 and A-769662 the screen read C32: 76.7; G-361: 82.6; COLO 792: 51.3; 501mel: 71.3. fludarabine and cediranib gave C32: 103; G-361: 98.0; COLO 792: 97.1.

Results for OSI-906 and ENMD-2076 are C32: 94.2; G-361: 92.7; COLO 792: 97.9. Results for fludarabine and CHIR-265 are C32: 83.7; G-361: 81.3; COLO 792: 55.8. For everolimus and cediranib the values were C32: 73.0; G-361: 64.2; COLO 792: 43.2. A-769662 and everolimus gave C32: 109; G-361: 68.3; COLO 792: 51.0; 501mel: 65.9.

For NVP-BEZ235 and ENMD-2076 the values were C32: 101; G-361: 104; COLO 792: 93.0. A-769662 and cediranib gave C32: 98.4; G-361: 106; COLO 792: 90.2; 501mel: 94.0. For CHIR-265 and OSI-906 the values were C32: 88.8; G-361: 53.0; COLO 792: 37.3. Results for pioglitazone and OSI-906 are C32: 102; G-361: 116; COLO 792: 86.6; 501mel: 82.7.

ENMD-2076 and pioglitazone gave C32: 109; G-361: 107; COLO 792: 87.2; 501mel: 99.9. With everolimus and pioglitazone the screen read C32: 98.8; G-361: 73.8; COLO 792: 57.2. pioglitazone and A-769662 gave C32: 111; G-361: 113; COLO 792: 94.9; 501mel: 101. Results for OSI-906 and everolimus are C32: 76.2; G-361: 40.9; COLO 792: 43.0.

With ENMD-2076 and cediranib the screen read C32: 91.9; G-361: 92.3; COLO 792: 89.9. Results for CHIR-265 and NVP-BEZ235 are C32: 79.3; G-361: 51.6; COLO 792: 32.6. For cediranib and pioglitazone the values were C32: 86.7; G-361: 106; COLO 792: 94.6; 501mel: 91.7. With CHIR-265 and pioglitazone the screen read C32: 77.1; G-361: 82.1; COLO 792: 52.9; 501mel: 54.9.

everolimus and ENMD-2076 gave C32: 89.4; G-361: 68.7; COLO 792: 48.7. Results for NVP-BEZ235 and OSI-906 are C32: 91.7; G-361: 83.4; COLO 792: 85.9. OSI-906 and fludarabine gave C32: 88.5; G-361: 78.5; COLO 792: 88.1. For CHIR-265 and ENMD-2076 the values were C32: 79.5; G-361: 77.1; COLO 792: 48.3.

everolimus and CHIR-265 gave C32: 90.8; G-361: 32.1; COLO 792: 33.9. NVP-BEZ235 and A-769662 gave C32: 84.6; G-361: 83.5; COLO 792: 88.1; 501mel: 85.9. fludarabine and NVP-BEZ235 gave C32: 93.8; G-361: 82.6; COLO 792: 91.4. For NVP-BEZ235 and pioglitazone the values were C32: 67.5; G-361: 82.2; COLO 792: 89.5; 501mel: 104.

With cediranib and OSI-906 the screen read C32: 104; G-361: 85.6; COLO 792: 90.0. For A-769662 and ENMD-2076 the values were C32: 81.8; G-361: 98.4; COLO 792: 86.4; 501mel: 86.8. Results for fludarabine and ENMD-2076 are C32: 103; G-361: 110; COLO 792: 91.9. With everolimus and fludarabine the screen read C32: 75.6; G-361: 47.7; COLO 792: 47.0.

Results for A-769662 and OSI-906 are C32: 120; G-361: 90.9; COLO 792: 95.4; 501mel: 82.0.

Some entries from above, unchanged:

Drugs	C32	G-361	COLO 792	501mel
pioglitazone and OSI-906	102	116	86.6	82.7
everolimus and fludarabine	75.6	47.7	47.0	-